Laboratory results: PMC2845627
Results are given in words; binding and its absence hold for the method and conditions named. Some entries that bind do so weakly or less than the wild type.

T1: AtGyrA (Hybrigenics two-hybrid service) (A. thaliana) (UniProt Q9CAF6)
T1 sequence: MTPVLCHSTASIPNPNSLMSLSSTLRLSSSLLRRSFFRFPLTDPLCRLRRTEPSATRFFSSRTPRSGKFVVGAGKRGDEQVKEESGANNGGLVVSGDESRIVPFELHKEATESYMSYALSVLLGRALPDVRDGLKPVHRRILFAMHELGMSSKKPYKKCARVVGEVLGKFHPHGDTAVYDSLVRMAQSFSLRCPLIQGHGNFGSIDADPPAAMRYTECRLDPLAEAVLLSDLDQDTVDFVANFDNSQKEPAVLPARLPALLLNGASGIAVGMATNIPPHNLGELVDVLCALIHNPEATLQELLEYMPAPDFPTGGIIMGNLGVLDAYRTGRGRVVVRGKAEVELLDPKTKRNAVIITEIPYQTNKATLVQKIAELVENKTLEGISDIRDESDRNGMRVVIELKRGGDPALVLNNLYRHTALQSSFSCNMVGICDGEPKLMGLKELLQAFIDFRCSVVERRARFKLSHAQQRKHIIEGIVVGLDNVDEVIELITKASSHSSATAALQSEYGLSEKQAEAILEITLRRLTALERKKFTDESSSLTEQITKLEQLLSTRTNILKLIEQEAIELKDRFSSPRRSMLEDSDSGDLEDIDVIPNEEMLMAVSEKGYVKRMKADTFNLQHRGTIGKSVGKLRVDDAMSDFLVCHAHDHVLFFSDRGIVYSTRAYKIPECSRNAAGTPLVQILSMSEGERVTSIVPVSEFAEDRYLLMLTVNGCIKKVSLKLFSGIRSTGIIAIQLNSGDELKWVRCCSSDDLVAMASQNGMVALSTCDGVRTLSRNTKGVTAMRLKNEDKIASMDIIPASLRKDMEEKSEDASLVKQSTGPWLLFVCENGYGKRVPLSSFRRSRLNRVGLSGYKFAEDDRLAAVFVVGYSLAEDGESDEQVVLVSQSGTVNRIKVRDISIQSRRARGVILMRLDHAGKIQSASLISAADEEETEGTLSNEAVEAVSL

T2: AtGyrB3 (Hybrigenics two-hybrid service) (A. thaliana) (UniProt Q8VY11)
T2 sequence: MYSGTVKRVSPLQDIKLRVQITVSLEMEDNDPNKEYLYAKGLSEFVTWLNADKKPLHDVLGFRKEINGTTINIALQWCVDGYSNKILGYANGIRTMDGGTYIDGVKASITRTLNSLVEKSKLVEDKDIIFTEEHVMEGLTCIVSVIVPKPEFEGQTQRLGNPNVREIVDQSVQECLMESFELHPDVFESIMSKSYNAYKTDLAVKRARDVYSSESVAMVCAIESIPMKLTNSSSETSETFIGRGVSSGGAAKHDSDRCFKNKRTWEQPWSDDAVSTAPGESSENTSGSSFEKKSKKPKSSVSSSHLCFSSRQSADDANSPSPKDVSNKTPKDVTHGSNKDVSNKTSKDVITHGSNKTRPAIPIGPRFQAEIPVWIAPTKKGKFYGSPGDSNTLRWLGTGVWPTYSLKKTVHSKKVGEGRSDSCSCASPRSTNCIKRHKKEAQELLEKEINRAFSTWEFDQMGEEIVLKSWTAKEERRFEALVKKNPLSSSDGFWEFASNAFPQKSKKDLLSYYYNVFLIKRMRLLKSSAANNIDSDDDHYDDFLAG

B1: transcription factor AtMYB124 (protein, UniProt Q94FL6 1-436)
chain: MEDTKKKKKKNINNNQDSKKKERHIVTWSQEEDVILREQITLHGTENWAIIASKFKDKSTRQCRRRWYTYLNSDFKRGGWSPEEDMLLCEAQRVFGNRWTEIAKVVSGRTDNAVKNRFTTLCKKRAKHEAMTKDSNSNTKRMLFLDGISTPRKSENETPIAKKLKRSHILDLTEISNYGRAEACVNQQIRSPFSVLARNATGIDSLEEQNQTSNVNESDGEGMFLKKDDPKVTALMQQAELLSSLAQKVNADNTEQSMENAWKVLQDFLNKGKENDLFRYGIPDIDFKIEEFKDLIEDLRSGYEDNQLSWRQPDLHDSPASSEYSSGSTIMVDQSGDKTQPFSADTQTEHKQVGEELLVPKNPDENMPISGEEKFSSPIQVTPLFRSLADGIPSPQFSESERSFLLKTLGIESSSPCPSANPSKPPPCKRVLLHSL
B2: AtGyrB3 (Hybrigenics two-hybrid service) (protein, UniProt Q8VY11 1-546)
chain: T2 sequence
B3: ethylene-inducing calmodulin-binding protein (At5g09410) (protein, UniProt Q9FY74 1-1007)
chain: MVDRRSFGSITPPLQLDMEQLLSEAQHRWLRPTEICEILQNYHKFHIASESPTRPASGSLFLFDRKVLRYFRKDGHNWRKKKDGKTIREAHEKLKVGSIDVLHCYYAHGEANENFQRRCYWMLEQHLMHIVFVHYLEVKGNRTSIGMKENNSNSVNGTASVNIDSTASPTSTLSSLCEDADTGDSQQASSVLRPSPEPQTGNRYGWTPAPGMRNVSQVHGNRVRESDSQRLVDVRALDTVGNSLTRFHDQPYCNNLLTQMQPSNTDSMLVEENSEKGGRLKAEHIRNPLQTQFNWQDDTDLALFEQSAQDNFETFSSLLGSENLQPFGISYQAPPSNMDSEYMPVMKILRRSEDSLKKVDSFSKWAIKELGEMEDLQMQSSRGDIAWTTVECETAAAGISLSPSLSEDQRFTIVDFWPKSAKTDAEVEVMVIGTFLLSPQEVTKYNWSCMFGEVEVPAEILVDGVLCCHAPPHTAGHVPFYVTCSNRFACSEVREFDFLSGSTQKINATDVYGTYTNEASLQLRFEKMLAHRDFVHEHHIFEDVGDKRRQISKIMLLKEEKEYLLPGTYQRDSTKQEPKGQLFRELFEEELYIWLIHKVTEEGKGPNILDEDGQGILHFVAALGYDWAIKPVLAAGVNINFRDANGWSALHWAAFSGREETVAVLVSLGADAGALTDPSPELPLGKTAADLAYANGHRGISGFLAESSLTSYLEKLTVDSKENSPANSCGEKAVQTVSERTAAPMTYGDVPEKLSLKDSLTAVRNATQAADRLHQVFRMQSFQRKQLCDIGDDEKIDISDQLAVSFAASKTKNPGQGDVSLSCAATHIQKKYRGWKKRKEFLLIRQRIVKIQAHVRGHQVRKQYRTVIWSVGLLEKIILRWRRKGNGLRGFKRNAVAKTVEPEPPVSAICPRIPQEDEYDYLKEGRKQTEERLQKALTRVKSMVQYPEARDQYRRLLTVVEGFRENEASSSASINNKEEEAVNCEEDDFIDIESLLNDDTLMMSISP
B4: oxidoreductase (At1g16720) (protein, UniProt Q8W4D6 1-598)
chain: MVGSIVGSNMAATDARFLSSNFGNSFSINTRIHRFHDRSQIVIPRAQSSSSPSPSPPSDKKKTKTRPGTITTKESEETVAKKLDVAPPSPQSPPSPPTLKLDDVNPVGLGRRSRQIFDEVWRKFSGLGQMSRTTRPDEQETLDSLLIREGPMCEFAVPGAQNVTVLVVGATSRIGRIVVRKLMLRGYTVKALVRKQDEEVMSMLPRSVDIVVGDVGEPSTLKSAVESCSKIIYCATARSTITADLTRVDHLGVYNLTKAFQDYNNRLAQLRAGKSSKSKLLLAKFKSAESLDGWEIRQGTYFQDTTASKYDGGMDAKFEFTETERAEFSGYVFTRGGYVELSKKLSLPLGTTLDRYEGLVLSVGGNGRSYVVILEAGPSSDMSQSKQYFARISTKAGFCRVRVPFSAFRPVNPEDPPLDPFLVHTLTIRFEPKRQRPVDGLAGAQQDLRSFSLVFEYIKALPAGQETDFILVSCTGSGVEANRREQVLKAKRAGEDSLRRSGLGYTIIRPGPLKEEPGGQRALIFDQGNRISQGISCADVADICVKALHDSTARNKSFDVCHEYVAEQGIELYELVAHLPDKANNYLTPALSVLEKNT
B5: ubiquitin-protein ligase (At1g67530) (protein, UniProt Q9CAG5 1-782)
chain: MDVTELEENLFAASDAKLHGDMCKELSGVLCKVLSIFPSLEGARPRSKSGIQALCSLHIALEKAKNILQHCSECSKLYLAITGDAVLLKFEKAKIALIDGLKRVEDIVPSSIGSQILEIVGELENTRFMLDPSEKEVGDQIIALLQQGKKFDNCNDNTELEIFHRAATRLSITSSRVALAERRALKKLIDRARAEEDKRKESIVAYLLHLMRKCSKLFRSEILDENDSPGSYPCSPNEDHGSVHGFGRQLSRFGSLNDKPMNSINSGQMPVPPEELRCPISLQLMCDPVIIASGQTYERVCIEKWFSDGHNTCPKTQQQLPHISLTPNNCVKGLIASWCEQNGTQIPSGPPESQDLDYWRLALSDSESTKSQSVNSIGSYKLKGVKIVPLEENGTTVVERQNTEESFVSDDDDEEDSDINVLERYQDLLAVLNEEEGLEKKCKVVEKIRLLLKDDEEARIFMGANGFVEALLRFLGSAVDDNNAAAQDSGAMALFNLAVNNNRNKELMLTSGVIRLLEKMISSAESHGSATALYLNLSCLDEAKSVIGSSQAVPFLVQLLQKEIETQCKLDALHALYNLSTYSPNIPALLSSNIIKSLQGLLASTGENLWIEKSLAVLLNLASSQEGKDEAVSSQGMISSLATVLDMGDTTEQEQAVSCLLILCNGRESCIQMVLQEGVIPSLVSISVNGTPRGREKSQKLLMLFREERQQRDQPSSNRDEPPQKEPARKSLSAPLSVHGSTPASASVQDYEPRVLSKSMSRRKSMARPFSFFWKKSYSVRE
B6: AtGyrA (Hybrigenics two-hybrid service) (protein, UniProt Q9CAF6 1-950)
chain: T1 sequence

The binders below were run against T1, AtGyrA (Hybrigenics two-hybrid service) (A. thaliana) (assay: two-hybrid; yeast two-hybrid service (Hybrigenics); AtGyrA or AtGyrB3 used as the bait).
B1 was tested, and the binding was “binds”.
For B2, the binding was “no binding”.

These binders were tested against T2, AtGyrB3 (Hybrigenics two-hybrid service) (A. thaliana) in the same assay as above.
B3 was tested, and the binding was “binds”.
In the case of B4, the binding is reported as “binds”.
For B5, the binding was “binds”.
With B6 the binding was “no binding”.
